Measurements: PMC5399287
Like-named read-outs stand apart in the source and are kept apart here. Results are given in words; binding and its absence hold for the method and conditions named. In cells and extracts the contact can be indirect. For some of these results: Binding calls can cover weak binding; strength is not graded here. Blank lines part the entries; values can stand above or below the molecule they belong to.

The chains behind the UniProt entries cited, without tags or fusion partners. Where a name states a change or a piece, a line headed by the entry shows the natural chain unless it says otherwise. Residues count along the entry.
UniProt P28301: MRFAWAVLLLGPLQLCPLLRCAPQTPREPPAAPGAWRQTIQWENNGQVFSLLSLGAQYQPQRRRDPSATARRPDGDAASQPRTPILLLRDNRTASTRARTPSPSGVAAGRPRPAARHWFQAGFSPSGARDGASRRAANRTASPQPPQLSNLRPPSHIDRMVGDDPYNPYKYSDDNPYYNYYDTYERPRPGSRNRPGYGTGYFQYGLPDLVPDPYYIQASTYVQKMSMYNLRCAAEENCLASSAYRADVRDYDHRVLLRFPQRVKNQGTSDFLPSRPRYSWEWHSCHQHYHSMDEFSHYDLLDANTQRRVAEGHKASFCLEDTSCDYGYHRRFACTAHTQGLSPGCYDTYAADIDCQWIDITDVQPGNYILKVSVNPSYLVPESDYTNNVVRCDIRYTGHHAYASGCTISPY
UniProt Q92743, residues 23-480: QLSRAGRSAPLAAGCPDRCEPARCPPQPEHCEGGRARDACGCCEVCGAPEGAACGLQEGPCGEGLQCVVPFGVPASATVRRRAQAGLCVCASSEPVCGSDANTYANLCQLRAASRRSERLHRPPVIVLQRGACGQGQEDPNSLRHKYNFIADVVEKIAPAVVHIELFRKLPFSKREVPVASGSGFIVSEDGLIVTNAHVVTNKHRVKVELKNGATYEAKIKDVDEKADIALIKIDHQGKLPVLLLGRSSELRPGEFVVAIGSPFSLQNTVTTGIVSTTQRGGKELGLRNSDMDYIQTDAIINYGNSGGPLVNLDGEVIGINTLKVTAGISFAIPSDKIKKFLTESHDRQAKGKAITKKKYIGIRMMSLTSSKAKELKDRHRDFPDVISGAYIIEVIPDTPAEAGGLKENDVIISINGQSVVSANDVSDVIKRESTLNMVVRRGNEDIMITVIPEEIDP

Experiments:
Test in all cases: co-IP; GFP fusion proteins precipitated with GFP-Trap agarose beads from culture medium of stably expressing MDA-MB-231 cells; co-precipitated MATN2 or HTRA1 by western blot
[1] = biological target: LOX-GFP (wild-type lysyl oxidase fused to GFP) (mouse) (UniProt P28301)
[2] = biological target: LOX^K314A-GFP (catalytically inactive mutant of LOX fused to GFP) (mouse) (UniProt P28301)
[3] = biological target: LOX-GFP (wild-type lysyl oxidase fused to GFP) (mouse) (UniProt P28301); remark: listed apart in the source
[4] = biological target: LOX^K314A-GFP (catalytically inactive mutant of LOX fused to GFP) (mouse) (UniProt P28301); remark: listed apart in the source

binding [1]: binds
binding [2]: no binding
Molecule: HTRA1 (high-temperature requirement A serine peptidase 1) (from UniProt Q92743 23-480) (enzyme)

binding [3]: binds
binding [4]: binds
B1: Matrilin2 (MATN2) (protein, UniProt O00339 24-956)
chain: RERSRGRSISRGRHARTHPQTALLESSCENKRADLVFIIDSSRSVNTHDYAKVKEFIVDILQFLDIGPDVTRVGLLQYGSTVKNEFSLKTFKRKSEVERAVKRMRHLSTGTMTGLAIQYALNIAFSEAEGARPLRENVPRVIMIVTDGRPQDSVAEVAAKARDTGILIFAIGVGQVDFNTLKSIGSEPHEDHVFLVANFSQIETLTSVFQKKLCTAHMCSTLEHNCAHFCINIPGSYVCRCKQGYILNSDQTTCRIQDLCAMEDHNCEQLCVNVPGSFVCQCYSGYALAEDGKRCVAVDYCASENHGCEHECVNADGSYLCQCHEGFALNPDKKTCTKIDYCASSNHGCQHECVNTDDSYSCHCLKGFTLNPDKKTCRRINYCALNKPGCEHECVNMEESYYCRCHRGYTLDPNGKTCSRVDHCAQQDHGCEQLCLNTEDSFVCQCSEGFLINEDLKTCSRVDYCLLSDHGCEYSCVNMDRSFACQCPEGHVLRSDGKTCAKLDSCALGDHGCEHSCVSSEDSFVCQCFEGYILREDGKTCRRKDVCQAIDHGCEHICVNSDDSYTCECLEGFRLAEDGKRCRRKDVCKSTHHGCEHICVNNGNSYICKCSEGFVLAEDGRRCKKCTEGPIDLVFVIDGSKSLGEENFEVVKQFVTGIIDSLTISPKAARVGLLQYSTQVHTEFTLRNFNSAKDMKKAVAHMKYMGKGSMTGLALKHMFERSFTQGEGARPLSTRVPRAAIVFTDGRAQDDVSEWASKAKANGITMYAVGVGKAIEEELQEIASEPTNKHLFYAEDFSTMDEISEKLKKGICEALEDSDGRQDSPAGELPKTVQQPTESEPVTINIQDLLSCSNFAVQHRYLFEEDNLLRSTQKLSHSTKPSGSPLEEKHDQCKCENLIMFQNLANEEVRKLTQRLEEMTQRMEALENRLRYR
